Record: PubChem BioAssay AID504786 (Drosophila RNAi Screening Center, 2011)
The screen tested about 21,000 reagents; shown is a random part of those that have a named target and a result. 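Primary screen; positive scores mean lost reporter signal, so the sign may be inverted from the usual convention.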 Names joined by + are all predicted targets of the reagent. Not all columns of the deposit are shown.

- Aim: 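Positive regulators of HIF-driven reporter output in Drosophila cells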 (primary screen)
- System: Drosophila S2 cells with a stable HIF luciferase reporter
- Reagent: long dsRNA against Drosophila genes, about 0.2 µg dsRNA per well of a 384-well plate
- Timing: three days of knock-down, then 20 h of DFO before reading
- Treatment: desferrioxamine (DFO) at 100 µM, an iron chelator that mimics hypoxia, for 20 h
- Measurement: 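Firefly luciferase driven by the mouse ldh-a hypoxia-response element, measured after 20 h of 100 µM DFO; z-scores per plate, higher means more signal lost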
- Reading the numbers: z-score: higher = stronger loss of HIF reporter signal

| target | amplicon | z-score, replicate 1 |
| --- | --- | --- |
| CG31788 | DRSC01630 | -0.4 |
| Obp99b | DRSC16264 | 0.1 |
| Xpc | DRSC07654 | -0.2 |
| CG11099 | DRSC06034 | -0.2 |
| Gbeta13F | DRSC20247 | -0.4 |
| CG17187 | DRSC15181 | -0.1 |
| CG4009 | DRSC15536 | -0.2 |
| CG7791 | DRSC04891 | -0.3 |
| CG15764 | DRSC18070 | -0.3 |
| CG34107 | DRSC14554 | -0.4 |
| S2P | DRSC07311 | -0.4 |
| Rbbp5 | DRSC11778 | -0.4 |
| Spn42Db | DRSC05009 | -0.1 |
| CG6048 | DRSC18398 | -0.3 |
| CG16736 | DRSC15145 | -0.3 |
| png | DRSC18582 | -0.3 |
| mRpS18C | DRSC16538 | 0.4 |
| CG4678 | DRSC19911 | -0.2 |
| CG4678 | DRSC19912 | -0.2 |
| CG18473 | DRSC16381 | -0.2 |
| Jheh1 | DRSC06529 | -0.3 |
| CG31272 | DRSC16058 | -0.1 |
| Ddx56 | DRSC20567 | 0.7 |
| CG15356 | DRSC00386 | 0.4 |
| CG31275 | DRSC16919 | -0.5 |
| CG11961 | DRSC06099 | -0.3 |
| CG32638 | DRSC18968 | 0 |
| CG3345 | DRSC00596 | -0.2 |
| Fmr1 | DRSC16674 | -0.1 |
| Pp2B-14D | DRSC20270 | 1.9 |
| CG11000 | DRSC12158 | -0.3 |
| Slmap | DRSC03799 | 2 |
| CG11566 (retired record) + stg1 | DRSC20473 | -0.8 |
| CG11566 (retired record) + stg1 | DRSC20481 | 0.2 |
| CG11566 (retired record) + stg1 | DRSC20482 | -0.3 |
| CG11566 (retired record) + stg1 | DRSC20483 | -0.1 |
| MED17 | DRSC16889 | 0.5 |
| CG14270 | DRSC17913 | -0.2 |
| CG34242 | DRSC09185 | -0.1 |
| fok | DRSC02103 | -0.4 |
| CG3330 | DRSC15477 | -0.3 |
| CG1116 | DRSC12166 | -0.1 |
| CG42362 + CG42363 | DRSC04265 | 0 |
| CG1636 | DRSC18111 | -0.2 |
| CG2540 | DRSC19856 | -0.4 |
| Jwa | DRSC02048 | -0.3 |
| CG9698 | DRSC16539 | -0.2 |
| CG11629 | DRSC03695 | -0.3 |
| E5 | DRSC13000 | 0.6 |
| E5 | DRSC16585 | 0.9 |
| CG15525 | DRSC15062 | 0 |
| CG14304 | DRSC14783 | -1 |
| CG13427 | DRSC06389 | 0 |
| CG7536 | DRSC20050 | -0.4 |
| Enoph | DRSC12201 | -0.2 |
| CG32773 (retired record) | DRSC17330 | -0.2 |
| mfas | DRSC16997 | -0.2 |
| CG7031 | DRSC16178 | 3.1 |
| Oatp58Dc | DRSC04363 | -0.4 |
| Pepck1 | DRSC07505 | -0.3 |
| CG11170 | DRSC04090 | -0.3 |
| CG7512 | DRSC10863 | -0.1 |
| Surf1 | DRSC11295 | 0.1 |
| Surf1 | DRSC11394 | -0.3 |
| His4:CG33883 + His4:CG33889 + His4:CG33899 + 20 more | DRSC21268 | 0.3 |
| CG1421 | DRSC03707 | -0.1 |
| Brca2 | DRSC04219 | -0.3 |
| Brca2 | DRSC04220 | -0.3 |
| Hsp60A | DRSC20254 | -0.4 |
| CG11857 | DRSC14411 | -0.9 |
| CG12974 | DRSC11684 | -0.3 |
| CG14000 + bchs | DRSC02333 | 3.2 |
| Patsas | DRSC02975 | -0.2 |
| MED15 | DRSC00267 | 2.5 |
| CG1409 | DRSC17910 | -0.1 |
| CG46491 | DRSC06565 | -0.2 |
| CG46491 | DRSC06566 | -0.2 |
| scw | DRSC01711 | -0.1 |
| scw | DRSC21252 | -0.2 |
| PGAP5 | DRSC03089 | -0.3 |
| Tsp42Ef | DRSC06191 | -0.3 |
| qkr58E-3 | DRSC04711 | -0.3 |
| path | DRSC10361 | 0 |

Targets above whose target name begins with F or f:
| target | amplicon | z-score, replicate 1 |
| --- | --- | --- |
| Fmr1 | DRSC16674 | -0.1 |
| fok | DRSC02103 | -0.4 |
